# Among all 340,000 compounds or so, about 6,200 (1.8%) were called active. Inconclusive means that the source gave no clear call. Such entries were picked first, then a sample of the others. Calls come from the whole dose curve; as a rule, active = well fitted activation curve with a large enough effect; inconclusive = small, poorly fitted or top-dose-only effect; inactive = no such curve, though single readings can be large or run the other way. A potency beside an inconclusive call is a rough fit, not a confirmed value.
# Assay: A quantitative high throughput screen for small molecules that induce DNA re-replication in SW480 colon adenocarcinoma cells. Note: nearly all actives have a fitted effect of over 55% in size.
# Details: Hoechst DNA content imaging, 48 h; series mostly up to 46.1 µM
# Summary of the method: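 Quantitative HTS format with DMSO vehicle controls; 48 hr drug incubation at 37 C, then 40 min Hoechst staining and scanning imager measurement at 405 nm excitation.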
# Potency is the fitted concentration of half-maximal effect.
row,SMILES,Potency
1,CCn1cc(S(=O)(=O)c2ccc(Cl)cc2)c(=O)c2cc(OC)ccc21,inactive
2,O=C(OCc1nnc(-c2ccccc2)o1)c1ccc([N+](=O)[O-])s1,"inconclusive: 0.0231 µM [activator, full curve, poor fit]"
3,CCC1CCCCN1S(=O)(=O)c1ccccc1[N+](=O)[O-] (configuration not stated),"inconclusive: 1.3 µM [activator, partial curve, poor fit]"
4,O=C1COc2ccc(C(=O)/C=C/c3ccccc3)cc2N1,"inconclusive: 4.11 µM [activator, full curve, poor fit]"
5,CCOc1cc(/C=C2/SC(=S)NC2=O)ccc1OC(=O)c1ccco1,"inconclusive: 8.2 µM [activator, partial curve]"
6,O=C(Nc1cccn(Cc2c(Cl)cccc2Cl)c1=O)C1CC1,inactive
7,CCc1ccccc1NC(=O)CN(C)C(=O)CSc1nc2cc(Cl)ccc2s1,"inconclusive: 0.092 µM [activator, full curve, poor fit]"
8,CCn1c(=S)sc2c(=O)n(CC(=O)Nc3cccc(Cl)c3)c(C)nc21,"inconclusive: 20.6 µM [activator, single point]"
9,Cc1ccc(S(=O)(=O)c2cn(CC(=O)Nc3ccccc3)c3ccc(F)cc3c2=O)cc1,"inconclusive: 0.651 µM [activator, full curve]"
10,COc1ccccc1Cc1nc(-c2ccc(C)cc2)no1,"inconclusive: 29.1 µM [activator, single point]"
11,O=C(c1cccc(C(F)(F)F)c1)C1CCCN(C(=O)c2cc(C3CC3)[nH]n2)C1 (configuration not stated),"inconclusive: 29.1 µM [activator, single point]"
12,Cc1ccc(OCCNC(=O)CN2C(=O)NC3(CCCC3)C2=O)cc1,"inconclusive: 29.1 µM [activator, single point]"
13,CC(C)SC1=NC(C)(C)C=C(/C=C/c2ccc(Cl)cc2Cl)N1,"inconclusive: 29.1 µM [activator, single point]"
14,Oc1cccc(/C=N/N(Cc2ccccc2)c2ccccc2)c1,"inconclusive: 16.4 µM [activator, single point]"
15,CC(Oc1ccc(Br)cc1)C(=O)Nc1nc(-c2ccccn2)cs1 (configuration not stated),"inconclusive: 29.1 µM [activator, single point]"
16,CC(=O)Oc1ccc2c(=O)c(Oc3ccccc3)coc2c1OC(C)=O,"inconclusive: 16.4 µM [activator, single point]"
17,CCOC(=O)C1CCN(S(=O)(=O)c2cc(C(=O)OC)n(C)c2)CC1,inactive
18,Cc1ccc(S(=O)(=O)NCc2ccc(C(=O)NCCCN3CCC(Cc4ccccc4)CC3)cc2)cc1,inactive
19,Cc1ccc(C(=O)NC2CC(C)(C)NC(C)(C)C2)cc1S(=O)(=O)N1CCOCC1,"inconclusive: 0.731 µM [activator, partial curve, poor fit]"
20,CN(C)CCCN(C(=O)COc1ccc(Cl)cc1)c1nc2cc3c(cc2s1)OCO3,"inconclusive: 29.1 µM [activator, single point]"
21,O=C(O)c1ccc(S(=O)(=O)N(Cc2cccs2)CC2CCCO2)cc1 (configuration not stated),inactive
22,Nc1ccc(Br)cc1C(NCC(=O)O)c1ccccc1 (configuration not stated),active: 6.51 µM
23,COc1ccc(NC(=O)c2cc(OC)c(OC)c(OC)c2)cn1,"inconclusive: 6.51 µM [activator, single point]"

row,SMILES,Potency
1,CCN(CC)S(=O)(=O)c1ccc(NC(=O)C2CCCN(C(=O)c3ccc(Cl)cc3)C2)cc1 (configuration not stated),inactive
2,Cc1c(C)c2ccc(OC(C)C(=O)NCCN3CCOCC3)c(C)c2oc1=O (configuration not stated),"inconclusive: 1.84 µM [activator, partial curve]"
3,CC(C)(C)CC(C)(C)NC(=S)NC1CCN(Cc2ccccc2)CC1,"inconclusive: 29.1 µM [activator, single point]"
4,O=C(COC(=O)CCC1CCCC1)Nc1ccc(Cl)cc1F,active: 23.1 µM
5,Cc1cc(C(=O)COC(=O)c2ccc(N)c([N+](=O)[O-])c2)c(C)n1Cc1ccc2c(c1)OCO2,"inconclusive: 3.26 µM [activator, full curve]"
6,Cc1ccc(-c2nnc(-c3ccccc3)c(N3CCOCC3)n2)cc1,"inconclusive: 18.4 µM [activator, single point]"
7,CCc1noc(C)c1C(=O)Nc1ccc(C)c(S(=O)(=O)N2CCCCCC2)c1,inactive
8,CC(C)SC1=NC(C)(C)C=C(/C=C/c2c(Cl)cccc2Cl)N1,"inconclusive: 29.1 µM [activator, single point]"
9,CCCCn1c(N)c(N(CCC(C)C)C(=O)c2ccc([N+](=O)[O-])s2)c(=O)[nH]c1=O,"inconclusive: 29.1 µM [activator, partial curve, poor fit]"
10,CCOc1ccc(S(=O)(=O)N2CCCC(C(=O)N3CCN(c4ccccc4)CC3)C2)cc1 (configuration not stated),"inconclusive: 20.6 µM [activator, partial curve, poor fit]"
11,CCN1C(=O)[C@H]2[C@@H](c3ccc(-c4ccc5c(c4)OCO5)c(OC)c3)N[C@@](C)(C(=O)OC)[C@H]2C1=O,inactive
12,COc1cccc(S(=O)(=O)Nc2ccc3sc(C)nc3c2)c1,"inconclusive: 6.51 µM [activator, single point]"
13,CC(NC(=O)c1ccccc1Br)C1CC2CCC1C2 (configuration not stated),inactive
14,Cc1cnc(C(=O)Nc2nccs2)cn1,inactive
15,CCOC(=O)C1CCN(C(c2cc3ccc(C)c(C)c3[nH]c2=O)c2nnnn2C2CCCCC2)CC1 (configuration not stated),inactive
16,O=C(O)Cc1cccc2ccccc12,"inconclusive: 0.092 µM [activator, full curve, poor fit]"
17,FC(F)(F)Oc1ccc(NC(=S)NCc2ccccc2)cc1,"inconclusive: 29.1 µM [activator, single point]"
18,CC1CC2(CCCCC2)N2C(=O)C(=O)c3cccc1c32 (configuration not stated),"inconclusive: 29.1 µM [activator, single point]"
19,Cc1ccc(-c2csc(N3CCN(c4cc5c(cc4Cl)nc(-c4ccncc4)n5CCN4CCCCC4)CC3)n2)cc1,"inconclusive: 1.03 µM [activator, full curve, poor fit]"
20,Cc1ccc2c(CC(=O)O)coc2c1C,"inconclusive: 29.1 µM [activator, single point]"
21,Cc1cc(N/N=C/c2ccc([N+](=O)[O-])o2)nc2ccccc12,"inconclusive: 6.51 µM [activator, single point]"
22,Cc1scc(-c2n[nH]c(=S)n2C(C)c2ccccc2)c1C (configuration not stated),inactive
23,Cc1cc(C)nc(/N=C(\N)Nc2ccc(OCc3ccccc3)cc2)n1,"inconclusive: 29.1 µM [activator, single point]"

# Copied from the list:
# Entry for Cc1cc(C(=O)COC(=O)c2ccc(N)c([N+](=O)[O-])c2)c(C)n1Cc1ccc2c(c1)OCO2 under Potency: inconclusive: 3.26 µM [activator, full curve]
# Entry for CC(NC(=O)c1ccccc1Br)C1CC2CCC1C2 (configuration not stated) under Potency: inactive

# Carrying on.

row,SMILES,Potency
1,OC[C@H]1NC[C@@H](O)[C@@H]1O,"inconclusive: 1.26 µM [activator, single point]"
2,CC(C)c1cc2cc3ccc(=O)oc3cc2o1,"inconclusive: 29.1 µM [activator, single point]"
3,Cc1cc(NC(=O)CCCn2nc([N+](=O)[O-])cc2C)no1,inactive
4,COc1cc(C(=O)NC(=S)Nc2ccccc2N2CCCC2)cc(OC)c1OC,"inconclusive: 16.4 µM [activator, single point]"
5,CCc1ccccc1NC(=O)C/C(C)=N/NC(=O)COc1ccccc1C,inactive
6,Cc1nc([N+](=O)[O-])c(Sc2nc3ccc([N+](=O)[O-])cc3[nH]2)n1Cc1ccccc1,"inconclusive: 18.4 µM [activator, single point]"
7,Cc1ccc(N(C)S(=O)(=O)c2ccc(-c3cnc(C4CC4)o3)cc2)cc1,"inconclusive: 4.11 µM [activator, full curve, poor fit]"
8,CCN(CC)S(=O)(=O)c1ccc(N2CCOCC2)c(NC(=O)c2cccc3c(=O)c(C)c(-c4ccccc4)oc23)c1,inactive
9,O=C(c1ccc(Cl)s1)N1CCN(c2ncccn2)CC1,"inconclusive: 16.4 µM [activator, single point]"
10,C[C@@]12C(=O)Nc3ccc(Br)cc3C(=O)N1[C@H]1c3cc(Br)ccc3OC[C@@H]1[C@@H]2c1ccccc1,"inconclusive: 32.6 µM [activator, single point]"
11,O=C(NCCN1CCN(c2cccc(Cl)c2)CC1)c1cccn2c(=O)c3ccccc3nc12,inactive
12,Cc1cc(C)c(O)c(CN(C)Cc2cc(Cl)cc(Cl)c2O)c1,"inconclusive: 6.51 µM [activator, full curve, poor fit]"
13,CCc1ccc(S(=O)(=O)ON2C(=O)c3ccccc3C2=O)cc1,"inconclusive: 4.61 µM [activator, full curve, poor fit]"
14,CC1CCCN(S(=O)(=O)c2cc3c4c(c2)CCN4C(=O)CC3)C1 (configuration not stated),"inconclusive: 1.46 µM [activator, partial curve, poor fit]"
15,Cc1nnc(NCCO)c2ccccc12,"inconclusive: 0.164 µM [activator, full curve, poor fit]"
16,O=C(Nc1ccccc1O)c1ccc2c(c1)C(=O)N(N1C(=O)c3ccccc3C1=O)C2=O,inactive
17,CN(CC(=O)Nc1cccc(C(F)(F)F)c1)Cc1ccccc1,inactive
18,NC(=O)[C@H]1CC2(CC(c3cccc(NC(=O)COc4ccc(Cl)cc4)c3)=NO2)CN1C(=O)c1ccc(Cl)cc1 (some centres not stated),"inconclusive: 25.9 µM [activator, single point]"
19,O=C(Nc1ccccc1N1CCOCC1)c1ccc([N+](=O)[O-])s1,active: 16.4 µM
20,COC(=O)C1=NN(C(=O)c2cccc(Br)c2)C(O)(c2ccc(Cl)cc2)C1 (configuration not stated),"inconclusive: 29.1 µM [activator, single point]"
21,O=C1N/C(=N/N=C/c2ccccc2O)SC1Cc1ccc(F)cc1 (configuration not stated),"inconclusive: 14.6 µM [activator, partial curve, poor fit]"

# — PubChem BioAssay AID624297 (National Center for Advancing Translational Sciences (NCATS), 2012)
